Results deposited as PubChem BioAssay AID1259424 (University of Nebraska Medical Center, 2018)
Shown is a random part of about 14,000 reagents. 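Higher correlation or smaller distance means closer resemblance to KSR1 loss; control wells, including KSR1 knockdowns, recur on many plates.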 Not all columns of the deposit are shown. The record does not give: the time to read-out.

Aim: 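Rank knockdowns across the genome by resemblance to the KSR1 depletion profile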 (primary screen)
Cells: human HCT116 colon cancer cells
Knock-down reagent: siRNA pool against human genes, 50 nM
Measured: 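Log2 levels of six mRNAs (branched-DNA multiplex), adjusted by two reference genes and the non-targeting median, then scored against the average KSR1 knockdown pattern as Pearson r and euclidean distance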
Reading the numbers: mean correlation with KSR1 profile: higher = expression change more like KSR1 knockdown

INSM2 (INSM transcriptional repressor 2)
- mean correlation with KSR1 profile: 0.159

BET1 (Bet1 golgi vesicular membrane trafficking protein)
- mean correlation with KSR1 profile: 0.578

MAP2K6 (mitogen-activated protein kinase kinase 6)
- mean correlation with KSR1 profile: 0.535

SPRR2A (small proline rich protein 2A)
- mean correlation with KSR1 profile: 0.368

MEOX1 (mesenchyme homeobox 1)
- mean correlation with KSR1 profile: -0.646

TBX20 (T-box transcription factor 20)
- mean correlation with KSR1 profile: -0.19

S100A10 (S100 calcium binding protein A10)
- mean correlation with KSR1 profile: -0.78

ATP1A4 (ATPase Na+/K+ transporting subunit alpha 4)
- mean correlation with KSR1 profile: -0.566

CAPZB (capping actin protein of muscle Z-line subunit beta)
- mean correlation with KSR1 profile: -0.283

RBL2 (RB transcriptional corepressor like 2)
- mean correlation with KSR1 profile: 0.179

SNX2 (sorting nexin 2)
- mean correlation with KSR1 profile: 0.774

KDM5D (lysine demethylase 5D)
- mean correlation with KSR1 profile: -0.554

YAF2 (YY1 associated factor 2)
- mean correlation with KSR1 profile: 0.351

GPR39 (G protein-coupled receptor 39)
- mean correlation with KSR1 profile: -0.246

SLC25A32
- mean correlation with KSR1 profile: 0.0847

RFK (riboflavin kinase)
- mean correlation with KSR1 profile: 0.85

ARHGAP24 (Rho GTPase activating protein 24)
- mean correlation with KSR1 profile: 0.482

DSG3 (desmoglein 3)
- mean correlation with KSR1 profile: -0.273

C9orf40 (chromosome 9 open reading frame 40)
- mean correlation with KSR1 profile: -0.606

PICALM (phosphatidylinositol binding clathrin assembly protein)
- mean correlation with KSR1 profile: 0.34

PCDHGC4 (protocadherin gamma subfamily C, 4)
- mean correlation with KSR1 profile: -0.0992

CAPN6 (calpain 6)
- mean correlation with KSR1 profile: -0.28

VAMP4 (vesicle associated membrane protein 4)
- mean correlation with KSR1 profile: -0.228

SPAG11B (sperm associated antigen 11B)
- mean correlation with KSR1 profile: 0.171

DENND5A (DENN domain containing 5A)
- mean correlation with KSR1 profile: -0.446

PRKD1 (protein kinase D1)
- mean correlation with KSR1 profile: -0.302

CCL16 (C-C motif chemokine ligand 16)
- mean correlation with KSR1 profile: -0.481

UST (uronyl 2-sulfotransferase)
- mean correlation with KSR1 profile: -0.128

GPR155 (G protein-coupled receptor 155)
- mean correlation with KSR1 profile: 0.565

THNSL1 (threonine synthase like 1)
- mean correlation with KSR1 profile: 0.108

ABI1 (abl interactor 1)
- mean correlation with KSR1 profile: 0.254

TRIT1 (tRNA isopentenyltransferase 1)
- mean correlation with KSR1 profile: 0.0018

EFNA1 (ephrin A1)
- mean correlation with KSR1 profile: 0.186

CSNK1E (casein kinase 1 epsilon)
- mean correlation with KSR1 profile: -0.00842

PDCD10 (programmed cell death 10)
- mean correlation with KSR1 profile: -0.2

PELI1 (pellino E3 ubiquitin protein ligase 1)
- mean correlation with KSR1 profile: -0.235

Not a retest: an excerpt of the list.
SPRR2A (small proline rich protein 2A)
- mean correlation with KSR1 profile: 0.368

MEOX1 (mesenchyme homeobox 1)
- mean correlation with KSR1 profile: -0.646

TBX20 (T-box transcription factor 20)
- mean correlation with KSR1 profile: -0.19

S100A10 (S100 calcium binding protein A10)
- mean correlation with KSR1 profile: -0.78

ATP1A4 (ATPase Na+/K+ transporting subunit alpha 4)
- mean correlation with KSR1 profile: -0.566

CAPZB (capping actin protein of muscle Z-line subunit beta)
- mean correlation with KSR1 profile: -0.283
